What was measured:
[1] = tested on: L. donovani intracellular amastigotes; assay: L. donovani intracellular amastigote assay in B10R cells (high content imaging); type: cell-based, Leishmania donovani; details: ratio between CC50 in B10R cells and EC50 against L. donovani intracellular amastigotes
Experimental: For the intracellular amastigote stage assay, L. donovani was incubated at a density of 1 × 10^6 parasites/mL for six days at 29 °C before infection to enrich the proportion of metacyclic promastigotes. B10R monocyte cell lines were cultured in RPMI supplemented with 10% FBS and 1%penicillin/streptomycin at 37 °C in 5% CO2. After 72 h, cells were counted with a hemocytometer and mixed with the six-day-old parasites. Into 384-well assay plates, that had been pre-spotted with compounds diluted 1000-fold in DMSO, with final assay concentrations ranging from 20 µM to 0.02 µM and tested in biological triplicates., 500 B10R cells and 7000 parasites were dispensed per well in a final volume of 50 µL using a Multidrop Combi liquid dispenser (ThermoScientific, Waltham, MA, USA). Plates were incubated at 37 °C and 5% CO2 for 72 h. Cultures were then fixed with 4% formaldehyde solution for 30 min and stained with 0.5 µg/mL DAPI (diamidino-2-phenylindole). Plates were then imaged using an ImageXpress Micro XLS automated high content imager (Molecular Devices, San Jose, CA, USA) using a 10× air objective. A custom image analysis module generated in ImageXpress was used to count the nuclei of host and parasite cells. EC50 values were obtained using the GraphPad Prism 9 Software with biological triplicates.

[2] = tested on: T. cruzi (infecting C2C12); assay: T. cruzi intracellular amastigote assay in C2C12 cells (high content imaging); type: cell-based, Trypanosoma cruzi; details: ratio between CC50 in C2C12 cell lines and EC50 against T. cruzi intracellular amastigotes
Experimental: Mouse C2C12 myoblasts (ATCC CRL-1772) were cultivated in RPMI 1640 medium supplemented with 5% FBS and kept at 37 °C and 5% CO2. T. cruzi CAI-72 trypomastigotes were obtained from the supernatant of C2C12 cells infected four to seven days previously. For the assay, 500 C2C12 cells were mixed with 7500 T. cruzi parasites and seeded into 384-well plates at a 50 µL final volume. Test compounds and reference drugs (Benznidazole and K11777) were pre-spotted into the 384 well black bottom plates prior to the addition of cells and parasites with final assay concentration of 20 µM to 0.02 µM. The plates were incubated at 37 °C^, 5% CO2 for 72 h. Cultures were then fixed with 4% formaldehyde and 0.5 µg/mL DAPI (diamidino-2-phenylindole) was added for staining nucleic acids. Plates were kept protected from light for 1 h and then imaged in an ImageXpress Micro XLS automated high content imager (Molecular Devices, San Jose, CA, USA). Imaging and data analysis were performed as described for L. donovani amastigotes on biological triplicates.

Q: CCC[CH2][Sn]([CH2]CCC)([O]C(=O)CCC(=O)Nc1ccc(OC)cc1)[O]C(=O)CCC(=O)Nc1ccc(OC)cc1 [MS26Bu2] was tested. Which “SI^a” value [1] did it give?
A: 3.78

Q: What about the “SI^b” value [2] of the same compound?
A: 0.27

Q: How did the “SI^a” value [1] turn out when CCC[CH2][Sn]([CH2]CCC)([CH2]CCC)[O]C(=O)CCC(=O)Nc1ccc(OC)cc1 [MS26Bu3] was run?
A: 0.8

Q: What about the “SI^b” value [2] of the same compound?
A: 2

Q: What does the source list for CCC[CH2][Sn]([Cl])([Cl])[O]C(=O)CCC(=O)Nc1ccc(OC)cc1 [MS26BuSnCl2]?
A: SI^a [1]: 0.031; SI^b [2]: 0.91

Q: COc1ccc(NC(=O)CCC(=O)[O][Sn]([CH]2CCCCC2)([CH]2CCCCC2)[CH]2CCCCC2)cc1 [MS26Cy3] was tested. Which “SI^a” value [1] did it give?
A: 0.01

Q: What about the “SI^b” value [2] of the same compound?
A: 66

Q: What does the source list for C[CH2][Sn]([CH2]C)([CH2]C)[O]C(=O)CCC(=O)Nc1ccc(OC)cc1 [MS26Et3]?
A: SI^a [1]: 13.1; SI^b [2]: 11.7

Q: What does the source list for COc1ccc(NC(=O)CCC(=O)[O][Sn]([CH3])([CH3])[CH3])cc1 [MS26Me3]?
A: SI^a [1]: 1.45; SI^b [2]: 0.47

Q: For COc1ccc(NC(=O)CCC(=O)[O][Sn]([c]2ccccc2)([c]2ccccc2)[c]2ccccc2)cc1 [MS26Ph3], which “SI^a” value [1] is on record?
A: 0.1

Q: What about the “SI^b” value [2] of the same compound?
A: 0.03

Q: What does the source list for C=[CH][Sn]([CH]=C)([O]C(=O)CCC(=O)Nc1ccc(OC)cc1)[O]C(=O)CCC(=O)Nc1ccc(OC)cc1 [MS26vin2]?
A: SI^a [1]: 1; SI^b [2]: 1
